Data published in patent publication US20260116965A1.
No constants are given. Whether binding was seen depends on the method and setting. Some binding calls cover weakened binding; strength is not graded here.

Biological target: T1, immunopeptide (TRPV6 antigen polypeptide, SEQ ID NO: 3 with a cysteine added to the amino end) (human)
T1 sequence (peptide): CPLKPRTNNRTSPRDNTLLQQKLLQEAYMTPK
Test: ELISA of hybridoma supernatant on immunogen and synthetic polypeptide

B1: CB-Anti-0002 antibody (antibody, IgG1, V domains shown)
VH: EVKLEESGGGLVQPGGSMKLSCVASGFTFSYYWMNWVRQSPEKGLEWVAEIRLKSHNYATHYAESVKGRFTISRDDSKSSVYLQMNNLRSEDTGIYYCARLAYDGERYYYALDYWGQGTSVTVSS
VL: DIVMSQSPSSLAVSVGEKFTMSCKSSQSLLYSNNQKNYLAWYQQKPGQSPKLLIYWASTRESGVPDRFTGSGYGTDFTLTISSVKAEDLAVYYCQQYYSYPFTFGSGTKLEIK
For B1, the binding was “binds”.
